Reference: publication PMC10145169
These are yes or no findings as the source states them, for the method shown. Binding seen in cells or lysates may run through a third protein. Some results given as binding are weak or reduced against the parent protein; the word gives no strength.

Chains of the proteins cited; added tags and fusions are not shown.
UniProt P29351: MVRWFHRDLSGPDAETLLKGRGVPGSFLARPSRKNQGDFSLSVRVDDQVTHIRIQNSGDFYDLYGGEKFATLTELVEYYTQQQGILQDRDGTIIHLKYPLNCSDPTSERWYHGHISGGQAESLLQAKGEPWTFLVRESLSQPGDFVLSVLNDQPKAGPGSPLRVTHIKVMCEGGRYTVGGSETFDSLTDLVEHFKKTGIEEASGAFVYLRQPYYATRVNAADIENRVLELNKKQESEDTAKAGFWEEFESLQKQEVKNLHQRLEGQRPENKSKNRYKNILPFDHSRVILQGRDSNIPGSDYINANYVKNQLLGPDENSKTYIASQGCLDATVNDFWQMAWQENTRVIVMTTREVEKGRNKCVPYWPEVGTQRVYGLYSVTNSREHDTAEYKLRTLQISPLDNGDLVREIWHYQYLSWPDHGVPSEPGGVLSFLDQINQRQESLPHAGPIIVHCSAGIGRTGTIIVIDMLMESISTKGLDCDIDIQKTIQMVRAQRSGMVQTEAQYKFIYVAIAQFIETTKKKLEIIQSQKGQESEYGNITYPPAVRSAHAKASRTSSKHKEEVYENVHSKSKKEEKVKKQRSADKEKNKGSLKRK

What was measured:
[1] = target: mouse wild type IDO1 stably expressed in P1.HTR mastocytoma cells (P1.IDO1) (mouse) (UniProt P28776); experiment: co-IP; IDO1 immunoprecipitated with a rabbit monoclonal anti-mouse IDO1 antibody (CV152) and Protein G-Sepharose from lysates of P1.HTR transfectants (50 mM Tris-HCl pH 7.5, 150 mM NaCl, 1% Nonidet P-40); cells pre-treated 4 h with epacadostat 1 uM or DMSO; partners detected by immunoblot
[2] = target: T1, mouse IDO1 mutant H350A lacking the catalytic activity, stably expressed in P1.HTR cells (P1.H350A) (mouse) (UniProt P28776); experiment: as above
T1 sequence: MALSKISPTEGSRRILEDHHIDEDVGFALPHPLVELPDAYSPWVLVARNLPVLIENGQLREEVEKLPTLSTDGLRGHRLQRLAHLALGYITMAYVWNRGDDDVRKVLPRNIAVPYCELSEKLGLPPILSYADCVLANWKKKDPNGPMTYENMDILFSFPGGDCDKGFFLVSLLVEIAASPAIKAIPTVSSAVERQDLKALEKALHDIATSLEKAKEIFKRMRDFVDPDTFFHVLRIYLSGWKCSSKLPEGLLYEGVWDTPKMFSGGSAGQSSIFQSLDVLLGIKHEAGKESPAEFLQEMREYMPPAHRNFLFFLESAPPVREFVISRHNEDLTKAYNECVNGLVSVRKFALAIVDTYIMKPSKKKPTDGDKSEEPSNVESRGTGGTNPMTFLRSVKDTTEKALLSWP

[3] = target: IDO1-RFP (mouse Ido1 cloned in pTagRFP-N vector) (mouse) (UniProt P28776); experiment: FRET or BRET; FRET microscopy (GFP/RFP pair) in fixed HeLa cells co-transfected with the two fusion proteins; 16 h after transfection cells treated 4 h with epacadostat 1 uM or DMSO

| binding [1] | binding [2] | binding [3] | Substance |
| --- | --- | --- | --- |
| binds | binds |  | SHP-1 (endogenous in P1.HTR transfectants) (from UniProt P29351 1-595) (enzyme) |
|  |  | binds | SHP-1-GFP (Ptpn6 Mouse Tagged ORF Clone, Origene) (from UniProt P29351 1-595) (enzyme) |
